# In PMC11704331:
# By UniProt entry, the sequences of proteins in these tests, tags left out.
# UniProt Q13547: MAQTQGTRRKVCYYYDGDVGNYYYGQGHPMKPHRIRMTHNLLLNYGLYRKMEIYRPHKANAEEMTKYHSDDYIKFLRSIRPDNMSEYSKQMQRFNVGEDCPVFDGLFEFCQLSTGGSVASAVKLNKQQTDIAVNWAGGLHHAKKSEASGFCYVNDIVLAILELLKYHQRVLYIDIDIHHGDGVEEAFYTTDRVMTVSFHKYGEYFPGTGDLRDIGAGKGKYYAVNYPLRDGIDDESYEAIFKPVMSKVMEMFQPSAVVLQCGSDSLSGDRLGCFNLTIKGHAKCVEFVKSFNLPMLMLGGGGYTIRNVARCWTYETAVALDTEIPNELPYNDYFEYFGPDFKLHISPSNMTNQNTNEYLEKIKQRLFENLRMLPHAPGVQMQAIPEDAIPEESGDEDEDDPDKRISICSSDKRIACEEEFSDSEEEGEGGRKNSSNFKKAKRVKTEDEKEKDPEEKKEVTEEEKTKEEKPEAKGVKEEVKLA
# No constants are given. Whether binding was seen depends on the method and setting. Binding seen in cells or lysates may run through a third protein. Some entries that bind do so weakly or less than the wild type.
# Biological target: T1, JUNB (human (endogenous in CAPAN1 and CAPAN2)) (UniProt P17275)
# T1 sequence: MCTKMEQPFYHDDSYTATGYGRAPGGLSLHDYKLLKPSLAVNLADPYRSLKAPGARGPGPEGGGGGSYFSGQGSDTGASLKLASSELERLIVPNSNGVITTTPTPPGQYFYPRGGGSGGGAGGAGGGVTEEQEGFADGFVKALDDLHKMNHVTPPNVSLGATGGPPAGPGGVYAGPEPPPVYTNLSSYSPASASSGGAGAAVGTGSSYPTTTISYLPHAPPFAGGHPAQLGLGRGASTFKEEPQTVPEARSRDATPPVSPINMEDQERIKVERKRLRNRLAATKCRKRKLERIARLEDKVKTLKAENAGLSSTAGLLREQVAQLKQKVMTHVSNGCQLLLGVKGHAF
# Experiment: co-IP; JUNB pulldown with antibody and protein A agarose beads from Triton X-100 lysates (500 ug protein) of CAPAN1 and CAPAN2 cells, antibody overnight at 4 °C; immunoblot for JUNB, HDAC1 and β-actin; IgG isotype control and input
substance,measurement,value
HDAC1 (from UniProt Q13547 1-482) (enzyme),binding,binds
